# Primary screen of a compound library

Chains of the proteins cited; added tags and fusions are not shown.
UniProt E9BF75, entry or part of it: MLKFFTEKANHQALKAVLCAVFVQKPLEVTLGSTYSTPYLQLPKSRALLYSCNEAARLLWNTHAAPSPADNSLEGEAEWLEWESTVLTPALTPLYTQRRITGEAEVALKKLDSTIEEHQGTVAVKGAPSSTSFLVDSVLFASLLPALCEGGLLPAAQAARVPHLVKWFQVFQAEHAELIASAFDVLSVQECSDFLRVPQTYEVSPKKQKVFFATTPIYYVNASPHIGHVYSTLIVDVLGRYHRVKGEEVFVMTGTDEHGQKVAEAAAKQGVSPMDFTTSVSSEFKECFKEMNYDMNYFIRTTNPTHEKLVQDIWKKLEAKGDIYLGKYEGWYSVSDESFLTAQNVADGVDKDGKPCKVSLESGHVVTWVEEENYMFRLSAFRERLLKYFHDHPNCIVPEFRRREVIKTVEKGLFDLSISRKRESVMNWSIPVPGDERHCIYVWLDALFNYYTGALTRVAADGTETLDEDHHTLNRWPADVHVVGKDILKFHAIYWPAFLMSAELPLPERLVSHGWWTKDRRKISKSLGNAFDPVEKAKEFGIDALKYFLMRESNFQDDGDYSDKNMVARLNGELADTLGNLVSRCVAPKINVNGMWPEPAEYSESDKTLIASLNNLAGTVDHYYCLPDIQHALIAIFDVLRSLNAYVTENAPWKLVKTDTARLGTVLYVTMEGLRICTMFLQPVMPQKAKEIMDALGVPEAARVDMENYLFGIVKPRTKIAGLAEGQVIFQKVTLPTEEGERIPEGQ

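Primary screen of methionyl-tRNA synthetase; the read-out is not stated. Target: Methionyl-tRNA synthetase (putative), Leishmania donovani (UniProt E9BF75). The test concentration is not given. Values are per cent inhibition. Size under these conditions: about 68,000 compounds, about 24 of them at 50% or above in at least one test.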

All values are in %. The record does not define 0% and 100%; most values in the screen are far below 50% and negative numbers occur (in some assays of this library far below -100). The compounds are a random part of those screened.

Cc1ccc(CN2CCc3c(CN4CCCC4)n[nH]c3C2)s1 gave 17.52%.
Cc1nc(CN(C)Cc2csc(-c3cccs3)n2)co1 gave 4.878%.
CC(=O)N(Cc1noc(C2CC2)n1)C1CCN(Cc2ccccn2)C1 (centres unmarked) gave 11.45%.
N#Cc1ccc(CN2CCN(c3ccncc3Cl)CC2=O)cc1 gave 14.73%.
Cc1cc2cc(Nc3c(C#N)c(=O)n(C)c(=O)n3C)ccc2[nH]1 gave 8.541%.
Cc1cc(N(C)C)nc(C2(C)CCCN2CC(N)=O)n1 (centres unmarked) gave 8.1%.
COCCN(CCOC)C(=O)c1ccn(-c2ccccc2Cl)n1 gave 4.467%.
CC(=O)N1CCN([C@@H]2CC[C@@H](NC(=O)c3cncc(C)c3)[C@H]2O)CC1 gave -3.082%.
COc1cc(C(=O)N(Cc2ccc(F)cc2)C2CC2)cc2c1OCCO2 gave 12.68%.
Cc1ccc(-c2cc(C(=O)NCCCc3csc(N)n3)[nH]n2)o1 gave 15.86%.
CCc1ccc(CN(C/C=C/c2ccccc2)CCOC)nc1 gave 16.24%.
Cc1cc(CN(C)C(=O)NCc2cccc(N3CCCC3=O)c2)no1 gave 5.164%.
Cc1c(C(=O)NC2CCCOC2)nnn1-c1ccc(Cl)cc1F (centres unmarked) gave 14.8%.
Cc1ccc2c(n1)N(C)CCN(Cc1ccco1)C2 gave 12.11%.
COC(=O)CC(NC(=O)c1ccccc1OC)c1cccs1 (centres unmarked) gave 4.298%.
COC(=O)c1ccc(Cn2nc(C)cc2C)c(F)c1 gave 10.07%.
COc1ccc(CNC(=O)NCc2ccc(C)cc2)cn1 gave 13.83%.
Cc1ccc(C(=O)NS(C)(=O)=O)cc1S(C)(=O)=O gave 15.72%.
c1cc2c(cc1-c1noc3c1CN(C1CCC1)CC3)OCO2 gave 11.81%.
CCCS(=O)(=O)N1CCCN(CCCOC)CC1 gave 0.2801%.
COc1ccc(CN2CCC3(CC2)CC(CC(=O)NC(C)C)CO3)cc1 (centres unmarked) gave 10.58%.
Cc1ccc(C(C(=O)NCCc2nc(C)cc(C)n2)N(C)C)cc1 (centres unmarked) gave 17.02%.
CS(=O)(=O)NC[C@H]1OC[C@H]2CN(Cc3ccsc3)CC[C@H]21 gave 17.77%.
c1cc(-c2cc(C3CCN(Cc4cncnc4)C3)ccn2)ccn1 (centres unmarked) gave 5.645%.
CC(=O)N1CCc2ccc(NC(=O)c3cn(C)nn3)cc2C1 gave 6.402%.
O=C(C1CC=CC1)N1C[C@H]2CN(Cc3ccncc3)C(=O)[C@H]2C1 gave 4.106%.
O=c1oc(-c2ccc(F)cc2)nn1CC1CCOC1 (centres unmarked) gave 6.832%.
COc1ccc2c(c1)CCCN(C(=O)NCC1CCCO1)C2 (centres unmarked) gave 20.32%.
CNS(=O)(=O)c1ccc(CNC(=O)C2CCCO2)cc1 (centres unmarked) gave -0.2688%.
Cc1ncc(CNC(=O)CCc2ccccc2F)c(C2CCCN2C)n1 (centres unmarked) gave 10.17%.

For reference, 4 entries once more:

{"structure": "Cc1ccc2c(n1)N(C)CCN(Cc1ccco1)C2", "inhibition": 12.11}
{"structure": "COC(=O)c1ccc(Cn2nc(C)cc2C)c(F)c1", "inhibition": 10.07}
{"structure": "CCc1ccc(CN(C/C=C/c2ccccc2)CCOC)nc1", "inhibition": 16.24}
{"structure": "CS(=O)(=O)NC[C@H]1OC[C@H]2CN(Cc3ccsc3)CC[C@H]21", "inhibition": 17.77}

From ChEMBL document CHEMBL3988442, “University of Dundee, Small-Polar-MMV Screening Library” (2021).